Values are the deposited “Percent Effect”, in %. The record does not define 0% and 100%; most values in the screen are far below 50% and negative numbers occur (in some assays of this library far below -100). This is an unselected part of the compounds tested. Two or more numbers in one place are separate tests of the same structure; such repeats can differ widely.

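Viability assay of Plasmodium falciparum sporozoites; the read-out is not stated. The concentration is filed as 10 mM, unlikely as a test dose, so the dose is not known. The record gives no direction; compounds that gave an IC50 in retests scored well above the rest, so higher reads as lower viability. Strong results were mostly tested again. About 34,000 compounds were tested under these conditions; 0.84% (about 280) showed 50% or more at least once.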

- Cc1cc2n(n1)CC(CNCc1ccccc1-n1cccn1)CN2 (stereo not shown) | 2.416%
- COCCn1c(=O)n(C)c(=O)c2ccc(C3CCC(CN)CC3)nc21.Cl (stereo not shown) | 10.77%
- CCc1nc(CC(=O)N2CCCCC2Cn2cccn2)cs1 (stereo not shown) | 3.352%
- O=C(NCCN1CCCCC1=O)C1CCC(=O)N(C2CCCC2)C1 (stereo not shown) | -4.379%
- CN(C)C(=O)COC1COC2(CCN(S(C)(=O)=O)CC2)C1 (stereo not shown) | 1.371%
- COc1ccc(CN2CC(O)CN(C(=O)OCC(C)(C)C)CC2=O)cc1 (stereo not shown) | 13.62%
- COCCn1cc2c(n1)C(CNC(=O)c1cc(C)[nH]c1C)OCC2 (stereo not shown) | 7.791%
- CC1COCCN1c1ncnc2sccc12 (stereo not shown) | -21.32%
- CN1CCCC1c1cncc(C(=O)NCCN2CCCC2)n1 (stereo not shown) | 0.7104%
- CNC(=O)CCc1cc(C2CCNCC2)nc(C)n1.Cl.Cl | 6.396%
- Cc1cc(CN2CCN(S(C)(=O)=O)CC(C(=O)N(C)C)C2)no1 (stereo not shown) | 4.197%
- COC(=O)c1cccc(S(=O)(=O)NCc2cccnc2N(C)C)c1 | 4.699%
- CCOC(CC)C(=O)NCc1cccc(N2CCCCC2=O)c1 (stereo not shown) | -9.142%
- [H][C@@]12C[C@H](C(=O)NCc3ccco3)CN(C(=O)c3ccoc3C)[C@]1([H])CCO2 | 2.698%
- O=C(CCC1CCCO1)NCc1ccc(Br)cc1F (stereo not shown) | 6.257%
- CCc1ncc2c(n1)CN(Cc1cccc(OCC(N)=O)c1)CC2 | -8.739%
- CCOC(=O)CCNC(=O)N1CCN(c2nc3ccccc3n2C)CC1 | -5.475%
- [H][C@@]12CCN(Cc3ccc4c(c3)OCO4)C[C@]1([H])O[C@@H](C(=O)NC)C2 | 1.217%
- O=C(O)C(F)(F)F.O=C(O)C(F)(F)F.[H][C@@]12C[C@H](C(=O)N3CCCCO3)CN(Cc3ccccc3F)[C@]1([H])CCO2 | -1.804%
- O=C(NC1CCN(c2ncccn2)CC1)c1sccc1C1CC1 | -14.21%
- CC(=O)NCC(=O)NCC1(O)CCN(c2cnccn2)C1 (stereo not shown) | -15.86%
- CCN(CC)C(=O)c1ccn(COc2ccccc2)n1 | -13.16%
- O=C(Cc1ccc(F)c(Br)c1)N1CCN(CCO)CC1 | 5.981%
- CCc1nc(C2CCCN2C(=O)CCc2nc(C3CC3)no2)no1 (stereo not shown) | 7.217%
- COc1ccc(C(C)N(C)Cc2c(C3CC3)[nH]c3ncccc23)cc1.Cl (stereo not shown) | 4.312%
- Cc1nn(C)c2ncnc(N3CCC(O)(CN4CCCC4)CC3)c12 | -18.31%
- Cc1cncc(C(=O)N2CCCC(C(=O)CCc3ccccc3)C2)c1 (stereo not shown) | 1.535%
- O=C(O)C(F)(F)F.[H][C@@]12CCN(C3CCOCC3)C[C@@]1([H])O[C@H](C(=O)N(C)C)C2 | 3.246%
- CN1CCC(c2cccc(Cc3ccc(F)cc3)n2)CC1 | 4.858%
- CC1CCN(CC2(O)CCCN(Cc3cccc(F)c3F)C2=O)CC1 (stereo not shown) | -2.249%
- Cc1cc(C)nc(C2CCCN2c2ccnc(C)n2)n1 (stereo not shown) | 15.26%
- OC(CN1CCN(Cc2nc(C3CC3)no2)CC1)c1ccccc1 (stereo not shown) | 6.287%
- CCc1n[nH]c(C2CN(Cc3nnc(C4CCC4)o3)CCO2)n1 (stereo not shown) | 12.52%
- Cc1nc(CN2CCCC(NCc3ccc(Cl)s3)C2)no1 (stereo not shown) | 5.01%
- CCC(Oc1ccc(N(C)S(C)(=O)=O)cc1)C(=O)N(C)C (stereo not shown) | -9.529%
- COc1cccc(C(=O)NS(=O)(=O)c2cccc(C#N)c2)c1 | -11.29%
- Cl.Cn1cncc1CN1CCc2nc3sccc3c(=O)n2CC1 | -1.585%
- Cc1cc(C)n(CC2CCCN2C(=O)c2ccc3nnc(C)n3c2)n1 (stereo not shown) | -17.55%
- CC(C)c1noc(C(C)Nc2nccc(CCC(F)(F)F)n2)n1 (stereo not shown) | 1.671% & -0.3266%
- CC(Cc1cccs1)NC(=O)CCn1cccn1 (stereo not shown) | 5.652%
- O=C(O)C(F)(F)F.[H][C@@]12CN(CC3CC3)C[C@@]1([H])N(Cc1cccc(F)c1)C(=O)CO2 | 25.42%
- COCc1nc(C(=O)NS(=O)(=O)c2ccc(C)s2)cs1 | -1.771%
- CCN(CC)C(=O)Cn1ccc2cc(NC(C)=O)ccc21 | -19.83%
- O=C(O)c1c[nH]c2cc(NS(=O)(=O)c3cc(F)ccc3Cl)ccc12 | 14.01%
- Cc1cc(C(=O)NCc2ccc(N3CCCC(C(N)=O)C3)cc2)no1 (stereo not shown) | -18.14%
- Cl.c1cncc(CNCc2cccs2)c1 | 10.68%
- Cc1csc(Nc2cc(C3CN(c4ccncn4)C3)nc(C)n2)n1 | 4.73%
- CC(CNC(=O)c1c[nH]nn1)Oc1ccc(Cl)cc1 (stereo not shown) | 5.192%
- Cc1nn(C)c(N(C)C)c1CNCCC(=O)NC1CCCCC1 | 6.595%
- Cn1cc(CCNC(=O)NC2CCS(=O)(=O)C2)cn1 (stereo not shown) | 7.615%
- Cc1ncc2c(n1)CN(CCCc1ccccc1)CC2 | 4.081%

For reference, 6 entries once more:

* CCc1ncc2c(n1)CN(Cc1cccc(OCC(N)=O)c1)CC2 : -8.739%
* COCc1nc(C(=O)NS(=O)(=O)c2ccc(C)s2)cs1 : -1.771%
* CCOC(=O)CCNC(=O)N1CCN(c2nc3ccccc3n2C)CC1 : -5.475%
* Cc1cc(C(=O)NCc2ccc(N3CCCC(C(N)=O)C3)cc2)no1 (stereo not shown) : -18.14%
* [H][C@@]12C[C@H](C(=O)NCc3ccco3)CN(C(=O)c3ccoc3C)[C@]1([H])CCO2 : 2.698%
* CCc1nc(C2CCCN2C(=O)CCc2nc(C3CC3)no2)no1 (stereo not shown) : 7.217%

The values are deposited in ChEMBL (CHEMBL3988442, “University of Dundee, Small-Polar-MMV Screening Library” (2021)).